In article doi:10.1101/2022.06.19.496727:
Residue numbers refer to the chain shown, from its start. In names and notes the source's numbering stands. Like-named read-outs stand apart in the source and are kept apart here. Results are given in words; binding and its absence hold for the method and conditions named. Some results given as binding are weak or reduced against the parent protein; the word gives no strength. Where a sequence is shown, tags or fusion partners need not be part of it.

Key:
Test in all cases: cross-linking
[1] = biological target: T1, 8His-Smc3 R1222C (engaged-heads reporter cysteine, wild type trimer) (S. cerevisiae) (UniProt P47037)
T1 sequence: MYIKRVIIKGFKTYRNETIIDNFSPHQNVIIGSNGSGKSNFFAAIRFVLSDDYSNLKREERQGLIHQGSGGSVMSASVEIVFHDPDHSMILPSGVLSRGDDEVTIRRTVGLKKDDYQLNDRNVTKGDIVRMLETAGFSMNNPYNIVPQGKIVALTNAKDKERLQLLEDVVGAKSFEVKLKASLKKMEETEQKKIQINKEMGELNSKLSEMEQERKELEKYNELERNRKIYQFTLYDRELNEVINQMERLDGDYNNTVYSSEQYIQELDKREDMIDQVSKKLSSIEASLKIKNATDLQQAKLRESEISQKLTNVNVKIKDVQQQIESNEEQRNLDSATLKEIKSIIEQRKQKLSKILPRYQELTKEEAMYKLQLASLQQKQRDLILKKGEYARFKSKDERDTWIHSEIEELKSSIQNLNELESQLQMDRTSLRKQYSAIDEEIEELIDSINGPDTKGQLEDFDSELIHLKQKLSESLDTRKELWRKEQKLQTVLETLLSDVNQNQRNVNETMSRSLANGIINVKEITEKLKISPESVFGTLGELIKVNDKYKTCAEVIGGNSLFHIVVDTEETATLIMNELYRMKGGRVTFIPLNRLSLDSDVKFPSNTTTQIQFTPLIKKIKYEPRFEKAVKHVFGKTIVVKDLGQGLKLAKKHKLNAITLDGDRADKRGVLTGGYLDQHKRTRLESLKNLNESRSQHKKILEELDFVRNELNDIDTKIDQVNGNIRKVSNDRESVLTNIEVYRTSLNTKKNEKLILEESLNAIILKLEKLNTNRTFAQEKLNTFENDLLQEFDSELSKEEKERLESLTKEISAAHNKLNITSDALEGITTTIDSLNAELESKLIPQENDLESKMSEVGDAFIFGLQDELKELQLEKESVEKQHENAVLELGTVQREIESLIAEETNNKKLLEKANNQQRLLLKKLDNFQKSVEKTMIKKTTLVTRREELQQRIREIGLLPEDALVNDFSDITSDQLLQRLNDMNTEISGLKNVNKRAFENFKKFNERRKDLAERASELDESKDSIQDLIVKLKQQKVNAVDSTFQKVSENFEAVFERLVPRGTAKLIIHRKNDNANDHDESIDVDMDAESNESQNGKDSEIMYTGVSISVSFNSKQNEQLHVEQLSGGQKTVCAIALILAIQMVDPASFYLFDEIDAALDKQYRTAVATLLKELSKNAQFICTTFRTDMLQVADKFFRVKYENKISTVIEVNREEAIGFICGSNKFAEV

[2] = biological target: T2, 8His-Smc3 K198C (zipped-up reporter cysteine, wild type trimer) (S. cerevisiae) (UniProt P47037)
T2 sequence: T1 sequence with K198C, C1222R

[3] = biological target: T2, 8His-Smc3 K198C (zipped-up reporter cysteine, wild type trimer) (S. cerevisiae); remark: listed apart in the source

B1: Smc1 N1192C (engaged-heads reporter cysteine, wild type trimer) (protein, UniProt P32908 1-1225)
chain: MGRLVGLELSNFKSYRGVTKVGFGESNFTSIIGPNGSGKSNMMDAISFVLGVRSNHLRSNILKDLIYRGVLNDENSDDYDNEGAASSNPQSAYVKAFYQKGNKLVELMRIISRNGDTSYKIDGKTVSYKDYSIFLENENILIKAKNFLVFQGDVEQIAAQSPVELSRMFEEVSGSIQYKKEYEELKEKIEKLSKSATESIKNRRRIHGELKTYKEGINKNEEYRKQLDKKNELQKFQALWQLYHLEQQKEELTDKLSALNSEISSLKGKINNEMKSLQRSKSSFVKESAVISKQKSKLDYIFKDKEKLVSDLRLIKVPQQAAGKRISHIEKRIESLQKDLQRQKTYVERFETQLKVVTRSKEAFEEEIKQSARNYDKFKLNENDLKTYNCLHEKYLTEGGSILEEKIAVLNNDKREIQEELERFNKRADISKRRITEELSITGEKLDTQLNDLRVSLNEKNALHTERLHELKKLQSDIESANNQEYDLNFKLRETLVKIDDLSANQRETMKERKLRENIAMLKRFFPGVKGLVHDLCHPKKEKYGLAVSTILGKNFDSVIVENLTVAQECIAFLKKQRAGTASFIPLDTIETELPTLSLPDSQDYILSINAIDYEPEYEKAMQYVCGDSIICNTLNIAKDLKWKKGIRGKLVTIEGALIHKAGLMTGGISGDANNRWDKEEYQSLMSLKDKLLIQIDELSNGQRSNSIRAREVENSVSLLNSDIANLRTQVTQQKRSLDENRLEIKYHNDLIEKEIQPKITELKKKLDDLENTKDNLVKEKEALQNNIFKEFTSKIGFTIKEYENHSGELMRQQSKELQQLQKQILTVENKLQFETDRLSTTQRRYEKAQKDLENAQVEMKSLEEQEYAIEMKIGSIESKLEEHKNHLDELQKKFVTKQSELNSSEDILEDMNSNLQVLKRERDGIKEDIEKFDLERVTALKNCKISNINIPISSETTIDDLPISSTDNEAITISNSIDINYKGLPKKYKENNTDSARKELEQKIHEVEEILNELQPNARALERYDEAEGRFEVINNETEQLKAEEKKILNQFLKIKKKRKELFEKTFDYVSDHLDAIYRELTKNPNSNVELAGGNASLTIEDEDEPFNAGIKYHATPPLKRFKDMEYLSGGEKTVAALALLFAINSYQPSPFFVLDEVDAALDITNVQRIAAYIRRHRNPDLQFIVISLKCTMFEKSDALVGVYRQQQENSSKIITLDLSNYAE
B1 was tested, and the binding [1] was “binds”.

B2: Smc1 K201C (zipped-up reporter cysteine, wild type trimer) (protein, UniProt P32908 1-1225)
chain: B1 chain with K201C, C1192N
For B2, the binding [2] was “binds” and the binding [3] was “binds”.
